All values are for the listed drug together with RKI-983 (2000 nM): C[C@@H](N)c1ccc(C(=O)Nc2ccnc3[nH]ccc23)cc1

Drug key:
fludarabine, 1000 nM: Nc1nc(F)nc2c1ncn2[C@@H]1O[C@H](CO)[C@@H](O)[C@@H]1O
dovitinib, 500 nM: CN1CCN(c2ccc3nc(-c4c(N)c5c(F)cccc5[nH]c4=O)[nH]c3c2)CC1
Src-I1, 10000 nM: COc1cc2ncnc(Nc3ccc(Oc4ccccc4)cc3)c2cc1OC
perifosine, 2000 nM: CCCCCCCCCCCCCCCCCCOP(=O)([O-])OC1CC[N+](C)(C)CC1
PF-04217903, 5000 nM: OCCn1cc(-c2cnc3nnn(Cc4ccc5ncccc5c4)c3n2)cn1
T0901317, 7000 nM: O=S(=O)(c1ccccc1)N(CC(F)(F)F)c1ccc(C(O)(C(F)(F)F)C(F)(F)F)cc1
CP-690550, 5000 nM: C[C@@H]1CCN(C(=O)CC#N)C[C@@H]1N(C)c1ncnc2[nH]ccc12
GSK0660, 5000 nM: COC(=O)c1sccc1S(=O)(=O)Nc1ccc(Nc2ccccc2)cc1OC
vorinostat, 400 nM: O=C(CCCCCCC(=O)Nc1ccccc1)NO
ABT-263, 2000 nM: CC1(C)CCC(c2ccc(Cl)cc2)=C(CN2CCN(c3ccc(C(=O)NS(=O)(=O)c4ccc(N[C@H](CCN5CCOCC5)CSc5ccccc5)c(S(=O)(=O)C(F)(F)F)c4)cc3)CC2)C1
veliparib, 7000 nM: C[C@]1(c2nc3c(C(N)=O)cccc3[nH]2)CCCN1
dorsomorphin, 2000 nM: c1cc(-c2cnn3cc(-c4ccc(OCCN5CCCCC5)cc4)cnc23)ccn1
CX-4945, 2000 nM: O=C(O)c1ccc2c(c1)nc(Nc1cccc(Cl)c1)c1ccncc12
BMS-536924, 1000 nM: Cc1cc(N2CCOCC2)cc2[nH]c(-c3c(NC[C@@H](O)c4cccc(Cl)c4)cc[nH]c3=O)nc12
SNS-032, 50 nM: CC(C)(C)c1cnc(CSc2cnc(NC(=O)C3CCNCC3)s2)o1
darinaparsin, 2000 nM: C[As](C)SC[C@H](NC(=O)CC[C@H](N)C(=O)O)C(=O)NCC(=O)O
erlotinib, 4000 nM: C#Cc1cccc(Nc2ncnc3cc(OCCOC)c(OCCOC)cc23)c1
GSK650394, 800 nM: O=C(O)c1ccc(-c2c[nH]c3ncc(-c4ccccc4)cc23)cc1C1CCCC1
GW0742, 10000 nM: Cc1cc(SCc2sc(-c3ccc(C(F)(F)F)c(F)c3)nc2C)ccc1OCC(=O)O
gemcitabine, 2 nM: Nc1ccn([C@@H]2O[C@H](CO)[C@@H](O)C2(F)F)c(=O)n1
STA-4783, 30 nM: CN(NC(=O)CC(=O)NN(C)C(=S)c1ccccc1)C(=S)c1ccccc1
SU6656, 2000 nM: CN(C)S(=O)(=O)c1ccc2c(c1)/C(=C/c1cc3c([nH]1)CCCC3)C(=O)N2

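Human melanoma cells were exposed to a pair of drugs for 72 h in 1,536-well plates and read by automated microscopy after fixing and staining. Values are the share of nuclei positive for cleaved PARP as a percentage of the same share in the DMSO control: 100 is the control level, higher means more apoptosis. Every drug was used at one fixed concentration, the higher of two screened. No replicate spread is given; individual values may be noisy. The marker varies much from line to line, for technical or biological reasons.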
An unselected part of the screen is shown.

* GW0742 : WM115: 240; A2058: 195; COLO 829: 70.5; SK-MEL-30: 246; IPC-298: 244
* fludarabine : WM115: 23.9; A2058: 205; COLO 829: 126; SK-MEL-30: 4790; IPC-298: 160
* dovitinib : WM115: 201; A2058: 1880; COLO 829: 151; SK-MEL-30: 66.6; IPC-298: 116
* ABT-263 : WM115: 94.8; A2058: 220; COLO 829: 92.4; SK-MEL-30: 397; IPC-298: 419
* BMS-536924 : WM115: 186; A2058: 287; COLO 829: 105; SK-MEL-30: 195; IPC-298: 74.4
* perifosine : WM115: 228; A2058: 188; COLO 829: 64.5; SK-MEL-30: 213; IPC-298: 173
* SNS-032 : WM115: 50.3; A2058: 264; COLO 829: 75.4; SK-MEL-30: 204; IPC-298: 57.5
* T0901317 : WM115: 50.3; A2058: 283; COLO 829: 198; SK-MEL-30: 322; IPC-298: 76.2
* dorsomorphin : WM115: 45.2; A2058: 469; COLO 829: 44.0; SK-MEL-30: 186; IPC-298: 45.1
* CX-4945 : WM115: 306; A2058: 356; COLO 829: 222; SK-MEL-30: 192; IPC-298: 103
* Src-I1 : WM115: 404; A2058: 438; COLO 829: 108; SK-MEL-30: 512; IPC-298: 243
* STA-4783 : WM115: 3220; A2058: 2920; COLO 829: 251; SK-MEL-30: 125; IPC-298: 51.8
* erlotinib : WM115: 162; A2058: 384; COLO 829: 120; SK-MEL-30: 129; IPC-298: 126
* PF-04217903 : WM115: 111; A2058: 199; COLO 829: 50.5; SK-MEL-30: 207; IPC-298: 39.5
* CP-690550 : WM115: 92.0; A2058: 156; COLO 829: 87.7; SK-MEL-30: 29.5; IPC-298: 63.4
* darinaparsin : WM115: 44.8; A2058: 182; COLO 829: 53.9; SK-MEL-30: 118; IPC-298: 123
* GSK0660 : WM115: 88.1; A2058: 373; COLO 829: 70.0; SK-MEL-30: 264; IPC-298: 51.7
* GSK650394 : WM115: 111; A2058: 175; COLO 829: 323; SK-MEL-30: 127; IPC-298: 80.9
* veliparib : WM115: 51.1; A2058: 257; COLO 829: 112; SK-MEL-30: 65.9; IPC-298: 98.8
* SU6656 : WM115: 303; A2058: 352; COLO 829: 119; SK-MEL-30: 270; IPC-298: 312
* vorinostat : WM115: 114; A2058: 167; COLO 829: 190; SK-MEL-30: 312; IPC-298: 54.3
* gemcitabine : WM115: 52.8; A2058: 255; COLO 829: 793; SK-MEL-30: 124; IPC-298: 182

Source: doi:10.1371/journal.pone.0140310, primary screening data, rounded.